# Laboratory results published in patent EP2177496A1, “New analogs of polysphorin and uses thereof for treating or preventing malaria” (Assistance Publique - Hôpitaux de Paris, priority 2008, dated 2010).
# Test: in vitro
# Conditions: human, hepg2 cells, TC50 (µM) Hepatic stage (rodent) P. yoelii
# Procedure: A preliminary screening was performed consisting in the infection of human CD81 transfected hepatocarcinome cell line HepG2 (HepG2/CD81) with P. yoelii. IC50 (inhibiting concentration 50), TC50 (toxic concentration 50) and TI (therapeutic index, ratio TC50/IC50) were estimated for each drug tested. Selected molecules (small IC50, high TC50 and high TI) were analyzed in human hepatocytes. Briefly, HepG2 cells were plated in 96-well plates for 24 h prior to inoculation with 1x10^4 of P. yoelii sporozoites. Sporozoites-inoculated culture plates were centrifuged for 5 min at 1,500 rpm at 4°C in order to enhance the infection rate as described by Gruner (Gruner et al., 2005). After 3h at 37°C, the cultures were washed and further incubated in fresh medium for 48 h (P. yoelii) before quantification of infected cells in triplicate wells.
# Toxicity was determined by using the colorimetric 3-(4,5-dimethylthiazol-2-yl)-2,5-diphenyltetrazolium bromide (MTT) assay (Mosman., 1983). Briefly, HepG2 cells cultures were prepared in 96-well plates as described above. Drugs were tested in triplicate wells at eight concentrations ranging from 6.4 × 10^-3 µM to 200 µM. […] The plates were read in an enzyme-linked immunosorbent assay plate reader (550-nm absorbance wavelength and 620-nm reference wavelength). The results were expressed as the percent change in viability compared to drug-free control cultures. […]
smiles,measurement,value
"C/C=C/c1cc(OC)c(O[C@H](C)[C@@H](O)c2cc(OC)c(OC)c(OC)c2)c(OC)c1 (relative stereo) [Polysphorin anti, reference compound]",CC50,91.7 µM
"C/C=C/c1cc(OC)c(O[C@@H](C)[C@@H](O)c2cc(OC)c(OC)c(OC)c2)c(OC)c1 (relative stereo) [Polysphorin syn, reference compound]",CC50,96.5 µM
